{
  "source": "the supplement of paper PMC4635364",
  "note": "Structures can show the parent of a compound that is named as a salt. The list shows a part of the results. This data set is noisy: repeats of one test often differ as much as different tests do.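 Human fetal ventral-midbrain neural progenitor line ReNCell VM, differentiated without mitogens. Images stained for doublecortin (early neurons) or tyrosine hydroxylase (dopaminergic neurons) were scored by blinded raters against untreated wells (0 = no change). Repeats and both raters were averaged, and compounds averaging 2 or higher were picked as hits for retesting.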",
  "data": [
    {"test_system": "ReNCell VM", "test": "neuronal differentiation score (DCX+ cell fraction vs untreated, manual image score) (score (-3 to 3)); higher = more neuronal differentiation", "conditions": "library: Spectrum; 2 uM; 2 weeks", "values": [
      {"smiles": "CC(C)N(CCC(C(N)=O)(c1ccccc1)c1ccccn1)C(C)C", "note": "(stereo unspecified)", "neuronal differentiation score": "inactive: 0"},
      {"smiles": "C[N+](C)(C)CCCCCCCCCC[N+](C)(C)C", "neuronal differentiation score": "inactive: 0"},
      {"smiles": "Clc1ccc(C(OCCN2CCCCC2)c2ccccc2)cc1", "note": "(stereo unspecified)", "neuronal differentiation score": "inactive: 0"},
      {"smiles": "C=C(C)c1cc2cc(C(C)=O)c(O)cc2o1", "neuronal differentiation score": "inactive: 0"},
      {"smiles": "CC(=O)O[C@H]1CC[C@@]2(C)[C@H](CC[C@@H]3[C@@H]2CC[C@]2(C)[C@@H](C4=CC(=O)OC4)[C@@H](OC(C)=O)C[C@]32O)C1", "neuronal differentiation score": "inactive: 0"},
      {"smiles": "COc1cc2c(cc1OC)[C@H](C)NCC2", "neuronal differentiation score": "inactive: 0"},
      {"smiles": "O=c1n(Cl)c(=O)n(Cl)c(=O)n1Cl", "neuronal differentiation score": "inactive: 0"},
      {"smiles": "NC(=O)c1cc([N+](=O)[O-])cc([N+](=O)[O-])c1", "neuronal differentiation score": "inactive: 0"},
      {"smiles": "CNCC(O)c1ccc(O)cc1", "note": "(stereo unspecified)", "neuronal differentiation score": "inactive: 0"},
      {"smiles": "COc1ccc(O)c(C(C)(C)C)c1.COc1ccc(O)cc1C(C)(C)C", "neuronal differentiation score": "inactive: 1"},
      {"smiles": "COc1cc([C@@H]2c3cc4c(cc3[C@H](O)[C@H]3COC(=O)[C@H]23)OCO4)cc(OC)c1OC", "neuronal differentiation score": "inactive: 0"}
    ]},
    {"test_system": "ReNCell VM", "test": "neuronal differentiation score (DCX+ cell fraction vs untreated, manual image score) (score (-3 to 3)); higher = more neuronal differentiation", "conditions": "library: Tocriscreen; 2 uM; 2 weeks", "values": [
      {"smiles": "Cc1cccc(C(C)c2c[nH]cn2)c1C", "note": "(stereo unspecified) [Medetomidine hydrochloride]", "neuronal differentiation score": "inactive: 0"},
      {"smiles": "NCc1cc(O)no1", "note": "[Muscimol]", "neuronal differentiation score": "inactive: 0"},
      {"smiles": "CC[C@@]1(O)C(=O)OCc2c1cc1n(c2=O)Cc2cc3ccccc3nc2-1", "note": "[Camptothecin]", "neuronal differentiation score": "inactive: 0"},
      {"smiles": "N[C@@H](Cn1oc(=O)[nH]c1=O)C(=O)O", "note": "[L-Quisqualic acid]", "neuronal differentiation score": "inactive: 0"},
      {"smiles": "O=C1CSC(c2ccccc2Cl)c2cc(Cl)ccc2N1", "note": "(stereo unspecified)", "neuronal differentiation score": "inactive: 0"},
      {"smiles": "O=C1NC(=O)c2c1c1c3ccccc3n3c1c1c2c2ccccc2n1[C@H]1CC[C@@H]3O1", "neuronal differentiation score": "inactive: 0"},
      {"smiles": "Oc1cc2c(cc1O)[C@H]1c3ccccc3CN[C@@H]1CC2", "note": "(racemic) [Dihydrexidine hydrochloride]", "neuronal differentiation score": "inactive: -2"}
    ]},
    {"test_system": "ReNCell VM", "test": "dopaminergic neuron differentiation score (TH+ cell fraction vs untreated, manual image score) (score (0 to 3)); higher = more TH+ dopaminergic neuron differentiation", "conditions": "library: LOPAC; 2 uM; 4 weeks; BDNF 10 ng/ml + GDNF 10 ng/ml", "values": [
      {"smiles": "Ic1ccccc1CNC1C2CCN(CC2)C1C(c1ccccc1)c1ccccc1", "note": "[L-703,606 oxalate]", "dopaminergic neuron differentiation score": "inactive: 0"},
      {"smiles": "N#CC(C#N)=Cc1ccc([N+](=O)[O-])c(O)c1", "note": "[Tyrphostin AG 126]", "dopaminergic neuron differentiation score": "inactive: 0"},
      {"smiles": "CCNC(=O)[C@H]1O[C@@H](n2cnc3c(N)ncnc32)[C@H](O)[C@@H]1O", "note": "[5'-N-Ethylcarboxamidoadenosine]", "dopaminergic neuron differentiation score": "inactive: 0"},
      {"smiles": "C=C(C)[C@@H]1[C@H]2OC(=O)[C@@H]1[C@]1(O)C[C@H]3OC34C(=O)O[C@H]2[C@@]41C.CC(C)(O)[C@@H]1[C@H]2OC(=O)[C@@H]1[C@]1(O)C[C@H]3OC34C(=O)O[C@H]2[C@@]41C", "note": "(stereo partly specified) [Picrotoxin]", "dopaminergic neuron differentiation score": "inactive: 0"},
      {"smiles": "O=C1CCCN1CC#CCN1CCCC1", "note": "[Oxotremorine sesquifumarate salt]", "dopaminergic neuron differentiation score": "inactive: 0"},
      {"smiles": "CC(C)C[C@H]1C(=O)N2CCC[C@H]2[C@]2(O)O[C@](NC(=O)[C@@H]3C=C4c5cccc6[nH]c(Br)c(c56)C[C@H]4N(C)C3)(C(C)C)C(=O)N12", "note": "[(+)-Bromocriptine methanesulfonate]", "dopaminergic neuron differentiation score": "inactive: 0"},
      {"smiles": "CC(C)N(CCC(C(N)=O)(c1ccccc1)c1ccccn1)C(C)C", "note": "(stereo unspecified) [Disopyramide phosphate]", "dopaminergic neuron differentiation score": "inactive: 0"},
      {"smiles": "NCCc1ccc(O)cc1", "note": "[4-Hydroxyphenethylamine hydrochloride]", "dopaminergic neuron differentiation score": "inactive: 0"},
      {"smiles": "CC(C)C1CNC(C(=O)O)C1CC(=O)O", "note": "(stereo unspecified) [Dihydrokainic acid]", "dopaminergic neuron differentiation score": "inactive: 0"},
      {"smiles": "CCn1cnc2c(Nc3cccc(Cl)c3)nc(N[C@@H]3CCCC[C@@H]3N)nc21", "dopaminergic neuron differentiation score": "inactive: 0"},
      {"smiles": "CCc1c(C(=O)OC)ncc2[nH]c3cc(OC)c(OC)cc3c12", "note": "[Methyl 6,7-dimethoxy-4-ethyl-beta-carboline-3-carboxylate]", "dopaminergic neuron differentiation score": "inactive: 0"},
      {"smiles": "NC(N)=NOCC[C@H](N)C(=O)O", "note": "[L-Canavanine sulfate]", "dopaminergic neuron differentiation score": "inactive: 0"},
      {"smiles": "O=C1CC[C@@]2(O)[C@H]3Cc4ccc(O)c5c4[C@@]2(CCN3CC2CC2)[C@H]1O5", "note": "[Naltrexone hydrochloride]", "dopaminergic neuron differentiation score": "inactive: 0"}
    ]},
    {"test_system": "ReNCell VM", "test": "dopaminergic neuron differentiation score (TH+ cell fraction vs untreated, manual image score) (score (0 to 3)); higher = more TH+ dopaminergic neuron differentiation", "conditions": "library: Phytochemical; 2 uM; 4 weeks; BDNF 10 ng/ml + GDNF 10 ng/ml", "values": [
      {"smiles": "COC(=O)C1=CO[C@@H](C)[C@@H]2CN3CC[C@@]4(C(=O)Nc5cc(OC)ccc54)[C@H]3C[C@H]12", "dopaminergic neuron differentiation score": "inactive: 0"},
      {"smiles": "COc1cc2c(c(OC)c1OC)-c1ccc(O)c(=O)cc1[C@@H](N)CC2", "note": "[Trimethylcolchicinic acid]", "dopaminergic neuron differentiation score": "inactive: 0"},
      {"smiles": "CN1CCc2cc3c(cc2C1O)OCO3", "note": "(stereo unspecified) [Hydrastinine hydrochloride]", "dopaminergic neuron differentiation score": "inactive: 0"},
      {"smiles": "O=C1CCC[C@@H]2[C@H]3CCCN4CCC[C@@H](CN12)[C@@H]34", "note": "[Matrine]", "dopaminergic neuron differentiation score": "inactive: 0"}
    ]},
    {"test_system": "ReNCell VM", "test": "dopaminergic neuron differentiation score (TH+ cell fraction vs untreated, manual image score) (score (0 to 3)); higher = more TH+ dopaminergic neuron differentiation", "conditions": "library: Spectrum; 2 uM; 4 weeks; BDNF 10 ng/ml + GDNF 10 ng/ml", "values": [
      {"smiles": "CC(C)N(CCC(C(N)=O)(c1ccccc1)c1ccccn1)C(C)C", "note": "(stereo unspecified)", "dopaminergic neuron differentiation score": "inactive: 0"},
      {"smiles": "C[N+](C)(C)CCCCCCCCCC[N+](C)(C)C", "dopaminergic neuron differentiation score": "inactive: 0"},
      {"smiles": "Clc1ccc(C(OCCN2CCCCC2)c2ccccc2)cc1", "note": "(stereo unspecified)", "dopaminergic neuron differentiation score": "inactive: 0"},
      {"smiles": "C=C(C)c1cc2cc(C(C)=O)c(O)cc2o1", "dopaminergic neuron differentiation score": "inactive: 0"},
      {"smiles": "CC(=O)O[C@H]1CC[C@@]2(C)[C@H](CC[C@@H]3[C@@H]2CC[C@]2(C)[C@@H](C4=CC(=O)OC4)[C@@H](OC(C)=O)C[C@]32O)C1", "dopaminergic neuron differentiation score": "inactive: 0"},
      {"smiles": "COc1cc2c(cc1OC)[C@H](C)NCC2", "dopaminergic neuron differentiation score": "inactive: 0"},
      {"smiles": "O=c1n(Cl)c(=O)n(Cl)c(=O)n1Cl", "dopaminergic neuron differentiation score": "inactive: 0"},
      {"smiles": "NC(=O)c1cc([N+](=O)[O-])cc([N+](=O)[O-])c1", "dopaminergic neuron differentiation score": "inactive: 0"},
      {"smiles": "CNCC(O)c1ccc(O)cc1", "note": "(stereo unspecified)", "dopaminergic neuron differentiation score": "inactive: 0"},
      {"smiles": "COc1ccc(O)c(C(C)(C)C)c1.COc1ccc(O)cc1C(C)(C)C", "dopaminergic neuron differentiation score": "inactive: 0"},
      {"smiles": "COc1cc([C@@H]2c3cc4c(cc3[C@H](O)[C@H]3COC(=O)[C@H]23)OCO4)cc(OC)c1OC", "dopaminergic neuron differentiation score": "inactive: 0"}
    ]}
  ]
}
